Reference: doi:10.1101/2025.09.30.679481
These are yes or no findings as the source states them, for the method shown. Binding seen in cells or lysates may run through a third protein. Some results given as binding are weak or reduced against the parent protein; the word gives no strength.

By UniProt entry, the sequences of proteins in these tests, tags left out.
UniProt P21187: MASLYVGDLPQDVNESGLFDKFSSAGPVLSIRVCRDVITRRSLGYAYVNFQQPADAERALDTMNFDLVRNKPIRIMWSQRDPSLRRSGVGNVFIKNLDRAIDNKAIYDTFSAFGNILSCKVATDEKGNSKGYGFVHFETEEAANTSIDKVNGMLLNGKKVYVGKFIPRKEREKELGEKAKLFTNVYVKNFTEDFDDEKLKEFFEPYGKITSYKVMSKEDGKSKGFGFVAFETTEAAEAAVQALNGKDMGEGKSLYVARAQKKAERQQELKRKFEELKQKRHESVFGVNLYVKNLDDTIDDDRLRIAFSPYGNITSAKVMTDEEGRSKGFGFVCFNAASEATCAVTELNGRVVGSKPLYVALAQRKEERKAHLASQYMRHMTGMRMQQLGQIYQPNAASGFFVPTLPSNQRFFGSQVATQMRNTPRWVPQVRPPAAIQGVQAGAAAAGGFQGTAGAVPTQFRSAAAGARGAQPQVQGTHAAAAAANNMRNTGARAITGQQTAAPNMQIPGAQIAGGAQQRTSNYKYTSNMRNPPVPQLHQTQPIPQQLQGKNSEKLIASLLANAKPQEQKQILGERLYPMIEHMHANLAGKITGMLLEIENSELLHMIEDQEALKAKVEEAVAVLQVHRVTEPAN

Molecular target: T1, Bicaudal-D (D. melanogaster (endogenous in embryos)) (UniProt P16568)
T1 sequence: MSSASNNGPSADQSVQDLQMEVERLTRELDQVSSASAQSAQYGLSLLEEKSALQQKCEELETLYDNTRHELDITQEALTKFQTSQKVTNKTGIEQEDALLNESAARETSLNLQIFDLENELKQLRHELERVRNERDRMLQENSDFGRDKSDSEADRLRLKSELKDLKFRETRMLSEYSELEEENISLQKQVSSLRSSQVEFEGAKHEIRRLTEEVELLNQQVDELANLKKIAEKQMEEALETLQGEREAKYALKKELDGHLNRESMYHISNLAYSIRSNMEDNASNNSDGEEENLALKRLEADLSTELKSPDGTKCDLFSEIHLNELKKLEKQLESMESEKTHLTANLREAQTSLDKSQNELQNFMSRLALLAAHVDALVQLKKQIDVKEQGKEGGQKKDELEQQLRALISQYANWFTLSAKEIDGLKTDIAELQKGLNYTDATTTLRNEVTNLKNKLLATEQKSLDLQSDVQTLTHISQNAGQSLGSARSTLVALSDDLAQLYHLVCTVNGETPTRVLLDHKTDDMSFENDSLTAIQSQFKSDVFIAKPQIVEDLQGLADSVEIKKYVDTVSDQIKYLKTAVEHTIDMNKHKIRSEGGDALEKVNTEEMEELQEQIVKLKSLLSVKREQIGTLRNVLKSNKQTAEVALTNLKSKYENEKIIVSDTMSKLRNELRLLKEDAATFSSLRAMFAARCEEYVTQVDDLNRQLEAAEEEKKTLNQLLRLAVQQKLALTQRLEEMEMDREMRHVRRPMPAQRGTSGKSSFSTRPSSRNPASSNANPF
Assay: co-IP

binding: binds
Substance: poly-A binding protein (from UniProt P21187 1-634)
